From patent US20210102200A1, “SMALL MOLECULE TARGETED RECRUITMENT OF A NUCLEASE TO RNA” (The Scripps Research Institute, priority 2018, published 2021)
These are yes or no findings as the source states them, for the method shown. Some entries that bind do so weakly or less than the wild type. Tags and fused reporters may be left off the sequences shown.

What was measured:
Details in all cases: remark: other sources report otherwise
[1] = target: T1, RNase L-GST protein, Q05823; test: in vitro self-oligomerization of RNase L induced by 2'-5'A4 or compound 2; dimethyl suberimidate cross-linking, SDS-PAGE, Western blot
T1 chain: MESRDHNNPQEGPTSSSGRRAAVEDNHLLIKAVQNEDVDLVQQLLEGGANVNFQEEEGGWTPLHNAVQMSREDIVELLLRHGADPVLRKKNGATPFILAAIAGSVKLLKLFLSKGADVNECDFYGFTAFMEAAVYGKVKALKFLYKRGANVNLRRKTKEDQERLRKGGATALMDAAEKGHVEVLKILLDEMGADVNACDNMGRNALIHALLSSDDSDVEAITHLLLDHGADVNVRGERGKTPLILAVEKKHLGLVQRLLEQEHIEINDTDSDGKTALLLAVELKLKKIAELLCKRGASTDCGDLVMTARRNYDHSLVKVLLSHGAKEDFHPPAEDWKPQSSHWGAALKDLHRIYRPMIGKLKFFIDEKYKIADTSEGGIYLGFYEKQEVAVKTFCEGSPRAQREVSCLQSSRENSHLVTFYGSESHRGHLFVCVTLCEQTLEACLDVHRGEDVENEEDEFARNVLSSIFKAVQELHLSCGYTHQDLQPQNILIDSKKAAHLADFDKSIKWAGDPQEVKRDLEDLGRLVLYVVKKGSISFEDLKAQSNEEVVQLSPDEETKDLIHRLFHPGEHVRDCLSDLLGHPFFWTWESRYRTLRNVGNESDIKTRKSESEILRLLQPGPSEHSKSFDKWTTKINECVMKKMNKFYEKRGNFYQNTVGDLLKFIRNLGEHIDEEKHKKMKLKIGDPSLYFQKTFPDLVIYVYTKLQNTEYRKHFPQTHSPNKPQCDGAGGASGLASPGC

[2] = target: T1, RNase L-GST protein, Q05823; test: in vitro self-oligomerization of RNase L induced by TGP-210-RL; dimethyl suberimidate cross-linking, SDS-PAGE, Western blot
[3] = target: T1, RNase L-GST protein, Q05823; test: in vitro RNase L oligomerization: RNase L (12 µM aliquot) with 2'-5'A4, 2 or 1b, cross-linked with dimethyl suberimidate, then SDS-PAGE and anti-RNase L Western blot, bands quantified with ImageJ
[4] = target: T1, RNase L-GST protein, Q05823; test: in vitro RNase L oligomerization: RNase L (3 µM aliquot) with 2'-5' A4, TGP-210 or TGP-210-RL, cross-linked with dimethyl suberimidate, then SDS-PAGE and anti-RNase L Western blot, bands quantified with ImageJ

Measured: binding

B1: RNase L-GST protein, Q05823 1-741 (enzyme, UniProt Q05823 1-741, looked up, not shown: a dimerising Fc or GST)
chain: T1 chain
binds: [1] | [2] | [3] | [4]
